Measurements published in the supplement of paper PMC12595434, “Development of retinoid nuclear receptor pathway antagonists through targeting aldehyde dehydrogenase 1A3” (iScience, 2025).
The list shows a part of the results. Single values of this set are uncertain.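 Many melting curves are irregular; where none melted, Tm was taken as 64 °C.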

Protein sequences, listed by entry. Tags and fused reporters are not part of them. Lines headed by an entry give the natural chain unless they say otherwise; changes in a name come on top.
UniProt P62699: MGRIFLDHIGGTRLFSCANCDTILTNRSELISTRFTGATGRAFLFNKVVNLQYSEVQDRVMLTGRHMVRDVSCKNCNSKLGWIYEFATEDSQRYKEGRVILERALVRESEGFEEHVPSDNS
UniProt P59780: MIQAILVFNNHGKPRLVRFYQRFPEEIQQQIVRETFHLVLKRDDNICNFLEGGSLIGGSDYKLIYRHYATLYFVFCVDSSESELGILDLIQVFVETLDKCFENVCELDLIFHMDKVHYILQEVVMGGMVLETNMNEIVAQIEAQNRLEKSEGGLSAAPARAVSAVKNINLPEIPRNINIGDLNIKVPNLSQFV
UniProt P60174, whole entry: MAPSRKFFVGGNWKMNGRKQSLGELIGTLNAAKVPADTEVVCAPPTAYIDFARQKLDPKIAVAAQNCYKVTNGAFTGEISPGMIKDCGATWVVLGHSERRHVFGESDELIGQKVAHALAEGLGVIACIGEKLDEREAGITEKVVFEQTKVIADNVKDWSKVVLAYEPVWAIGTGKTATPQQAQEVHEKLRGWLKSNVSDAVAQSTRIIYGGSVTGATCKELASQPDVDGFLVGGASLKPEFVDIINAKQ
UniProt P62937, whole entry, looked up: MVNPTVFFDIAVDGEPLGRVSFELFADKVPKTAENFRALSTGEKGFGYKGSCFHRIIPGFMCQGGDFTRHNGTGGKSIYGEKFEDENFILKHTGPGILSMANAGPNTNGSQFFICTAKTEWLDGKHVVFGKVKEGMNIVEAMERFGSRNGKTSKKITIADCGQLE
UniProt P53992: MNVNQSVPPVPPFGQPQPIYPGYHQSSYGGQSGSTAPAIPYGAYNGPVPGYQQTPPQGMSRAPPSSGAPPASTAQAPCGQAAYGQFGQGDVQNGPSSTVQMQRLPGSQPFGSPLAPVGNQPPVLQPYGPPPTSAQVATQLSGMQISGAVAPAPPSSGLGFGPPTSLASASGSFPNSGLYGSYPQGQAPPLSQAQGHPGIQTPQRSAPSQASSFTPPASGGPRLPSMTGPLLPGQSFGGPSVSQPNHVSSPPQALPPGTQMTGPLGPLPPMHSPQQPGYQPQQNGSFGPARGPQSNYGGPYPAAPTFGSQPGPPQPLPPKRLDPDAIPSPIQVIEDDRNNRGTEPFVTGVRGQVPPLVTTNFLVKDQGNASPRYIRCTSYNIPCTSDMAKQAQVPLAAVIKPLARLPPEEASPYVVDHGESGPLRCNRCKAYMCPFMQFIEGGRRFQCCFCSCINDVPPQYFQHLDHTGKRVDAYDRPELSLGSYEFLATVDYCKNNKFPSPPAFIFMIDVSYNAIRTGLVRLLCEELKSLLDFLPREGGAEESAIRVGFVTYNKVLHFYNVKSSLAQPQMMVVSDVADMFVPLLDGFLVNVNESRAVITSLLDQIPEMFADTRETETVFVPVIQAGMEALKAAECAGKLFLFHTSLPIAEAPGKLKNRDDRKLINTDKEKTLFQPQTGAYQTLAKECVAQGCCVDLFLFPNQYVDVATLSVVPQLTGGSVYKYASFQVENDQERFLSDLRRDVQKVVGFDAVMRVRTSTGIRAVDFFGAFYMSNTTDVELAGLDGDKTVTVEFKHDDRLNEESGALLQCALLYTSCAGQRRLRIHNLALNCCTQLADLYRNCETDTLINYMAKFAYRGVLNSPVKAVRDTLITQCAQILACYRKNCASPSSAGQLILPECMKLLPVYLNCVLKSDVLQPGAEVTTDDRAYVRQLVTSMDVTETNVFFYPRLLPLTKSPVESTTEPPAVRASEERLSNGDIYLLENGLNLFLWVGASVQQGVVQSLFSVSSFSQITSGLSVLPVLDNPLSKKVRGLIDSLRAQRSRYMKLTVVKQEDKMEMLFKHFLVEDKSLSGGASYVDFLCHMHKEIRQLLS
UniProt P62253: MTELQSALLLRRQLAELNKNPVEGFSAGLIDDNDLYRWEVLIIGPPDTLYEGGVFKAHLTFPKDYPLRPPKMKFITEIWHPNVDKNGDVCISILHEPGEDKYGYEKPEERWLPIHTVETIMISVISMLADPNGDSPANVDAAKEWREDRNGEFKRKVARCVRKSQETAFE
UniProt P62140, whole entry: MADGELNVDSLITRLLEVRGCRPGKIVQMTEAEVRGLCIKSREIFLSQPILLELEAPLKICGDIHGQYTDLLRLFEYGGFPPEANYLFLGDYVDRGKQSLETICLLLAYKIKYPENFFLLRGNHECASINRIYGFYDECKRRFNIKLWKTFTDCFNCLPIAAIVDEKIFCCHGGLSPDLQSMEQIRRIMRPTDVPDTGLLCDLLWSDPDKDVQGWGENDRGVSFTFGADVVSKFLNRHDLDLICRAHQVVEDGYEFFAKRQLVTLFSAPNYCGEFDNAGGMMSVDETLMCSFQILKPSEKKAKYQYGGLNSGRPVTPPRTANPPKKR
UniProt P63096, whole entry: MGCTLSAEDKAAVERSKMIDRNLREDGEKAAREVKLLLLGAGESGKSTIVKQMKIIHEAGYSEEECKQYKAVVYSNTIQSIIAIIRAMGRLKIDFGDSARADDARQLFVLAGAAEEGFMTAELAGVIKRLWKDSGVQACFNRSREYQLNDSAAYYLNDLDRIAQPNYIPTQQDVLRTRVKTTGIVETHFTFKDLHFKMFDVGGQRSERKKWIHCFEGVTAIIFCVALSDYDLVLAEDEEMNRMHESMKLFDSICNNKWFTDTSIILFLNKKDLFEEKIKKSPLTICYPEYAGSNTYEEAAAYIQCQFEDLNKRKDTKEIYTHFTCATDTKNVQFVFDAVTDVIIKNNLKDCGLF
UniProt P57081: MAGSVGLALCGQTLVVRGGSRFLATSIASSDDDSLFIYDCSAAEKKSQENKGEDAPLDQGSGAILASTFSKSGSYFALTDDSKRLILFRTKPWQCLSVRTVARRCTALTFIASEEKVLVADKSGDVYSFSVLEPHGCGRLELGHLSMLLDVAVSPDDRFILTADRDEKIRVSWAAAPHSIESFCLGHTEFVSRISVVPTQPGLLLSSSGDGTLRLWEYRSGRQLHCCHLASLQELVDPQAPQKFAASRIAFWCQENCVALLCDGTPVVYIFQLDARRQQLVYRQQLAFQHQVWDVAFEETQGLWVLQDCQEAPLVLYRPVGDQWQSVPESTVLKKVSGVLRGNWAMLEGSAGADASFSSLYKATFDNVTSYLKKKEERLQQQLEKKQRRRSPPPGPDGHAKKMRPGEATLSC
UniProt P62256: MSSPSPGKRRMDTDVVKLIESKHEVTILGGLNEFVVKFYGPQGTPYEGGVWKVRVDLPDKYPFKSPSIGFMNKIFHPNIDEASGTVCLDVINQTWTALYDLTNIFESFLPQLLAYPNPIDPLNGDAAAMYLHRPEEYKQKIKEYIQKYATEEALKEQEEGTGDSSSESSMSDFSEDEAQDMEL
UniProt P62318, whole entry: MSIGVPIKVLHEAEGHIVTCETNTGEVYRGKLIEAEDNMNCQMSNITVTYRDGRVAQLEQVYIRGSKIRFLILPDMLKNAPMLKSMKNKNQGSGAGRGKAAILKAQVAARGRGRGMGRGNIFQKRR
UniProt P52630: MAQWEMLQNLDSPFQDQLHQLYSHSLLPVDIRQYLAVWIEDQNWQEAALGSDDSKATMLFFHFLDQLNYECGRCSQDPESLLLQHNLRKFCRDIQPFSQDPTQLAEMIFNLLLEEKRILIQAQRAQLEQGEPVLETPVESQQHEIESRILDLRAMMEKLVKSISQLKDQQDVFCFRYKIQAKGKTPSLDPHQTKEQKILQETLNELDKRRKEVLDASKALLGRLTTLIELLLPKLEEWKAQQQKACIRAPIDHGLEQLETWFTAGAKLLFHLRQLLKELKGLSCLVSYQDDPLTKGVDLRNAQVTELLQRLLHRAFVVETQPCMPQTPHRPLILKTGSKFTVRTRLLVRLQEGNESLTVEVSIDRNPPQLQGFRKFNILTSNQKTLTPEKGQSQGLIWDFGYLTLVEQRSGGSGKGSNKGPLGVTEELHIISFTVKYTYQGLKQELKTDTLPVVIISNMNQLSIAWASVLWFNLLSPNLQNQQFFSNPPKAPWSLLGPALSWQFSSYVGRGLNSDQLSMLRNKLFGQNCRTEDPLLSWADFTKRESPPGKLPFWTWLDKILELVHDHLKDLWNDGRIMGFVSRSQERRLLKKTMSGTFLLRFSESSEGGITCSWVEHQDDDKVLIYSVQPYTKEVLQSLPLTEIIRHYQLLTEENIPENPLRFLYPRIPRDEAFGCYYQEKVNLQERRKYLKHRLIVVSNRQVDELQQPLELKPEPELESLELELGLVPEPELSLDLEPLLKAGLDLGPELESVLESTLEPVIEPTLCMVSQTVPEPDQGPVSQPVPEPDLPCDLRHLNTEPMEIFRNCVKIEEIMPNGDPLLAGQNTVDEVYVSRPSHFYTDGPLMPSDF
UniProt P55036: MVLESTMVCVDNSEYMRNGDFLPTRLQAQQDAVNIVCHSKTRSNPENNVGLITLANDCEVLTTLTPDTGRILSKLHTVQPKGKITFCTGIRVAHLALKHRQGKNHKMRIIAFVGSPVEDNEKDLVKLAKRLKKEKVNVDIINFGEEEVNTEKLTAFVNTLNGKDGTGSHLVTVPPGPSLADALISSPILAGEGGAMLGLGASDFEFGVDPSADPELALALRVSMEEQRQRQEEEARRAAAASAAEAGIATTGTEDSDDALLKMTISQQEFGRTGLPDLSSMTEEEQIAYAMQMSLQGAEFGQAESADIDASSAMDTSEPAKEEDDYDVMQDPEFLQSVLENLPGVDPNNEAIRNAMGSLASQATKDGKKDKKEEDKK
UniProt P60891: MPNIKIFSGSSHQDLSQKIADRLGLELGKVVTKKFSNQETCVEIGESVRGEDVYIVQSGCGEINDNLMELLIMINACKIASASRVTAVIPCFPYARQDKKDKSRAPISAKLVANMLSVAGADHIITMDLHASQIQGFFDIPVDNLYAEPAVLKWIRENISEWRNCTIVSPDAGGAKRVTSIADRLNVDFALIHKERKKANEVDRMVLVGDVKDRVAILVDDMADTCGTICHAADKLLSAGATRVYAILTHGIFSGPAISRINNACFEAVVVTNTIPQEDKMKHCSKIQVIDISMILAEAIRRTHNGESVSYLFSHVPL
UniProt P62258: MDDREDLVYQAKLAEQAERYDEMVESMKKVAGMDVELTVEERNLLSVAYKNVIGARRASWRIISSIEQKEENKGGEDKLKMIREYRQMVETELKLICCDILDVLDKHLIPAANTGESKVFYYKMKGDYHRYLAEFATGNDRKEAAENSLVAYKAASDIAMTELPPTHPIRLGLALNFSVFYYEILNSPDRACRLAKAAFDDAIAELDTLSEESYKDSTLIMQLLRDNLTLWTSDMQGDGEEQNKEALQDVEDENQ
UniProt P56937: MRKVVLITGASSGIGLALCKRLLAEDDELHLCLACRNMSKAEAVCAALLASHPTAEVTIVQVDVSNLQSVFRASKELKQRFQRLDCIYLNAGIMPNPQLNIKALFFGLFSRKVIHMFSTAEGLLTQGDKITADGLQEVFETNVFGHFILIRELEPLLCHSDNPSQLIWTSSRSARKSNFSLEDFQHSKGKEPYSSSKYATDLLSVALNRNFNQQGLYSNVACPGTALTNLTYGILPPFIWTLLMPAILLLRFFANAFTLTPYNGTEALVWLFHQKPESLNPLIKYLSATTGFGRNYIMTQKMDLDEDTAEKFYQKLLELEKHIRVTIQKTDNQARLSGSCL
UniProt P52306: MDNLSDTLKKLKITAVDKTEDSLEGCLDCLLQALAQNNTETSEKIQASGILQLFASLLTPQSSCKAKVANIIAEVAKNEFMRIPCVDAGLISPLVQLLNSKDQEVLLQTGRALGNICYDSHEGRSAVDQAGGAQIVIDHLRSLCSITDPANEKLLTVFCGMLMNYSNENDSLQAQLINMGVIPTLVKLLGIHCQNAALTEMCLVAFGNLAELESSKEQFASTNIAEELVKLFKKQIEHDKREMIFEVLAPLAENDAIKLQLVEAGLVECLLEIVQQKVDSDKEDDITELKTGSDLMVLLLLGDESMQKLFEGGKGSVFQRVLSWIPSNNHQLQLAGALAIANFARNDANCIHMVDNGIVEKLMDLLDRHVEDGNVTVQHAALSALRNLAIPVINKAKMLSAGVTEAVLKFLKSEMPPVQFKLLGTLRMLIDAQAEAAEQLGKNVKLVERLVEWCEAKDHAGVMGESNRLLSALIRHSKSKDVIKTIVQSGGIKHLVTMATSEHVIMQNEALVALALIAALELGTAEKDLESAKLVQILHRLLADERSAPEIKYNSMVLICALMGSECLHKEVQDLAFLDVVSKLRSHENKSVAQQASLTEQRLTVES
UniProt P63165, whole entry: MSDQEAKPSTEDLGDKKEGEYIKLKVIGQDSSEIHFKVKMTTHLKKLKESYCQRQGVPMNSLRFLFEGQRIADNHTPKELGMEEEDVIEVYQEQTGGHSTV
UniProt P62879, whole entry: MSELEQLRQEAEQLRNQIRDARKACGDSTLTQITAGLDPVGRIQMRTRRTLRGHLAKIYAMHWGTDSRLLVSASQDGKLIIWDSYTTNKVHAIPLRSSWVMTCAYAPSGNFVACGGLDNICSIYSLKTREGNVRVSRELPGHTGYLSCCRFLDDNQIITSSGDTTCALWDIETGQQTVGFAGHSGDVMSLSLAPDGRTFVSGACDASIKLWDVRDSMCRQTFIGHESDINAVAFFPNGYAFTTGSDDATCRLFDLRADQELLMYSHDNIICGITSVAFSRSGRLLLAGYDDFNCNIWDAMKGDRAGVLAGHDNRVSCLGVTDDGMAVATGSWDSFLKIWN

Compound: CCc1cnccc1C(=O)Nc1cc2c(cc1F)NC(=O)CC2
Assay: melting temperature shift (DMSO Tm minus MBE1-treated Tm) in cellular thermal proteome profiling; higher = less thermal stabilization by MBE1 (negative = stabilized by MBE1)
Conditions: A375

| Target | melting temperature shift (MBE1 concentration: 100 nM) | melting temperature shift (MBE1 concentration: 1 uM) |
| --- | --- | --- |
| UniProt P54253 | 1.75 °C | 2.21 °C |
| NUP107 (UniProt P57740) | 1.03 °C | 0.556 °C |
| YPEL5 (UniProt P62699) | 0.641 °C | 0.0977 °C |
| UniProt P54284 | -0.322 °C | 0.727 °C |
| UniProt P59780 | 0.495 °C | 0.336 °C |
| NAA20 (UniProt P61599) | -0.64 °C | 0.653 °C |
| RPS23 (UniProt P62266) | -0.293 °C | 1.15 °C |
| TPI1 (UniProt P60174) | -1.15 °C | -0.302 °C |
| RPS4X (UniProt P62701) | -0.733 °C | 0.503 °C |
| PPIA (UniProt P62937) | -0.677 °C | -0.637 °C |
| HNRNPF (UniProt P52597) | -0.776 °C | -0.663 °C |
| UniProt P52790 | 2.02 °C | -0.00611 °C |
| EIF3E (UniProt P60228) | -0.386 °C | -0.132 °C |
| ARFIP1 (UniProt P53367) | 0.122 °C | 0.44 °C |
| IST1 (UniProt P53990) | 0.391 °C | -0.879 °C |
| CKS1B (UniProt P61024) | -1.68 °C | -3.63 °C |
| PRKAA2 (UniProt P54646) | -0.104 °C | 0.605 °C |
| EIF4A1 (UniProt P60842) | 0.415 °C | -0.0733 °C |
| SEC24C (UniProt P53992) | -1.01 °C | -0.903 °C |
| RPS8 (UniProt P62241) | -0.531 °C | -0.0488 °C |
| UBE2G1 (UniProt P62253) | -0.818 °C | -0.221 °C |
| RPL10A (UniProt P62906) | -0.543 °C | -0.165 °C |
| POLR2H (UniProt P52434) | 0.525 °C | 0.0366 °C |
| PPP1CB (UniProt P62140) | -1.66 °C | -0.105 °C |
| HNRNPK (UniProt P61978) | 0.83 °C | -0.134 °C |
| GNAI1 (UniProt P63096) | -1.17 °C | -0.62 °C |

| Target | melting temperature shift (MBE1 concentration: 100 nM) | melting temperature shift (MBE1 concentration: 1 uM) |
| --- | --- | --- |
| UniProt P63162 | -1.2 °C | -3.27 °C |
| RPS14 (UniProt P62263) | -0.154 °C | 11.9 °C |
| WDR4 (UniProt P57081) | -1.22 °C | 1.27 °C |
| UBE2H (UniProt P62256) | -0.713 °C | 0.372 °C |
| SKP1 (UniProt P63208) | -1.93 °C | 0.0472 °C |
| SNRPD3 (UniProt P62318) | -2.14 °C | 1.17 °C |
| STAT2 (UniProt P52630) | 0.156 °C | -0.115 °C |
| UniProt P62314 | -0.905 °C | 2.09 °C |
| PPP3R1 (UniProt P63098) | -0.979 °C | -0.255 °C |
| PSMD4 (UniProt P55036) | -1.37 °C | 0.55 °C |
| PRPS1 (UniProt P60891) | -0.525 °C | 0.275 °C |
| NUBP1 (UniProt P53384) | 0.369 °C | 0.563 °C |
| EIF6 (UniProt P56537) | -1.12 °C | -0.647 °C |
| UniProt P63267 | 0.148 °C | 0.435 °C |
| YWHAE (UniProt P62258) | -0.537 °C | -0.568 °C |
| C21ORF59 (UniProt P57076) | 0 °C | 0.0256 °C |
| HSD17B7 (UniProt P56937) | -0.446 °C | 0.195 °C |
| ACTR2 (UniProt P61160) | -0.727 °C | -0.275 °C |
| RPL26 (UniProt P61254) | -0.501 °C | -0.232 °C |
| RAP1GDS1 (UniProt P52306) | -1.15 °C | -0.998 °C |
| MSH6 (UniProt P52701) | -0.5 °C | -0.237 °C |
| SUMO1 (UniProt P63165) | 0.0518 °C | 0.376 °C |
| GNB2 (UniProt P62879) | -0.959 °C | 0.637 °C |
| BLVRA (UniProt P53004) | -0.376 °C | 0.838 °C |
| RPS11 (UniProt P62280) | 0.134 °C | 15 °C |
| UniProt P57729 | -0.625 °C | 0.104 °C |

Quoted at random: 2 entries already listed, in no set order.

| Target | melting temperature shift (MBE1 concentration: 100 nM) | melting temperature shift (MBE1 concentration: 1 uM) |
| --- | --- | --- |
| C21ORF59 (UniProt P57076) | 0 °C | 0.0256 °C |
| PPIA (UniProt P62937) | -0.677 °C | -0.637 °C |
